Results are given in words; binding and its absence hold for the method and conditions named. In cells and extracts the contact can be indirect. Some results given as binding are weak or reduced against the parent protein; the word gives no strength.

Sequences of proteins named here, by UniProt entry; tags and fusion partners are left off.
UniProt Q9JLQ0: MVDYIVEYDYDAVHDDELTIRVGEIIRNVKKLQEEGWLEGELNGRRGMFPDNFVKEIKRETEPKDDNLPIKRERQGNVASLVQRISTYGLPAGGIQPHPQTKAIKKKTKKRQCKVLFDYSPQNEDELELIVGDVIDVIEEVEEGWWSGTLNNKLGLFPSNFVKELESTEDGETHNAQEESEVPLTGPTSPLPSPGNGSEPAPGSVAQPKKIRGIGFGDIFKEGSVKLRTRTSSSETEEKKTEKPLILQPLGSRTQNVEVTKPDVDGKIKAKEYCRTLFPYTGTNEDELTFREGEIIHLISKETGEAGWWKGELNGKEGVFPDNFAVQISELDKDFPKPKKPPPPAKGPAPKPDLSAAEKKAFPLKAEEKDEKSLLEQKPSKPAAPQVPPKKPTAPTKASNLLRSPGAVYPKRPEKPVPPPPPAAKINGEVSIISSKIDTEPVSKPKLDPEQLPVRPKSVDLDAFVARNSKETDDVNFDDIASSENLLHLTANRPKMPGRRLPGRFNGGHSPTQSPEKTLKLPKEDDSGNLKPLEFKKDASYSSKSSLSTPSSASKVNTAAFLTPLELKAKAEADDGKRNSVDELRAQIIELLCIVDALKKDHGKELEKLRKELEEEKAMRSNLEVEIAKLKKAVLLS
UniProt Q03135: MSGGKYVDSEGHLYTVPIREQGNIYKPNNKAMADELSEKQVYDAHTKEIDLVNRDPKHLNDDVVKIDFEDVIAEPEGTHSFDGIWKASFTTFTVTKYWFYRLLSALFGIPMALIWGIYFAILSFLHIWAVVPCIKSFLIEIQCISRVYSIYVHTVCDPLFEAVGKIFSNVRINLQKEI

This is an account of results in publication PMC6307745.

Test [1] has as its target EGFP-CD2AP (mouse) (UniProt Q9JLQ0). The experiment in a line: co-IP; transfected cells cross-linked with 0.5mM DSP for 30min at room temperature, solubilised in 1% octylglucoside, 1% TritonX-100, 50mM Tris pH8, 300mM NaCl, 5mM EDTA; anti-GFP immunoprecipitation; blot with anti-caveolin1.
The target is the same in test [2]. The experiment in a line: co-IP; cells co-transfected with cavin1-mCherry and an EGFP construct; lysis in 0.1% TritonX100, 10 mM Tris pH8, 150 mM NaCl, 0.5 mM EDTA; cleared at 100,000 g; GFP-Trap beads overnight at 4°C; blot with anti-cavin1.

As to “caveolin1 (in lysates of transfected, DSP cross-linked cells) (from UniProt Q03135 1-178)”, the binding entry in the test with EGFP-CD2AP (mouse) [1] is “binds”.

B1: cavin1-mCherry (protein, UniProt P85125 1-392)
chain: MEDVTLHIVERPYSGYPDASSEGPEPTPGEARATEEPSGTGSDELIKSDQVNGVLVLSLLDKIIGAVDQIQLTQAQLEERQAEMEGAVQSIQGELSKLGKAHATTSNTVSKLLEKVRKVSVNVKTVRGSLERQAGQIKKLEVNEAELLRRRNFKVMIYQDEVKLPAKLSVSKSLKESEALPEKEGDELGEGERPEEDAAAIELSSDEAVEVEEVIEESRAERIKRSGLRRVDDFKKAFSKEKMEKTKVRTRENLEKTRLKTKENLEKTRHTLEKRMNKLGTRLVPVERREKLKTSRDKLRKSFTPDHVVYARSKTAVYKVPPFTFHVKKIREGEVEVLKATEMVEVGPDDDEVGAERGAETDLLRGSSPDVHTLLEITEESDAVLVDKSDSD
As to B1, the binding entry in the test with EGFP-CD2AP (mouse) [2] is “binds”.
